In patent US20250283871A1, “COMPOSITIONS AND METHODS FOR MODULATING THE INTERACTION BETWEEN SS18-SSX FUSION ONCOPROTEIN AND NUCLEOSOMES” (Dana-Farber Cancer Institute, Inc., priority 2020, published 2025):

B1: ACAD10 (protein, UniProt Q6JQN1 1-1059, looked up)
Acyl-CoA dehydrogenase family …: MCVRSCFQSPRLQWVWRTAFLKHTQRRHQGSHRWTHLGGSTYRAVIFDMGGVLIPSPGRVAAEWEVQNRIPSGTILKALMEGGENGPWMRFMRAEITAEGFLREFGRLCSEMLKTSVPVDSFFSLLTSERVAKQFPVMTEAITQIRAKGLQTAVLSNNFYLPNQKSFLPLDRKQFDVIVESCMEGICKPDPRIYKLCLEQLGLQPSESIFLDDLGTNLKEAARLGIHTIKVNDPETAVKELEALLGFTLRVGVPNTRPVKKTMEIPKDSLQKYLKDLLGIQTTGPLELLQFDHGQSNPTYYIRLANRDLVLRKKPPGTLLPSAHAIEREFRIMKALANAGVPVPNVLDLCEDSSVIGTPFYVMEYCPGLIYKDPSLPGLEPSHRRAIYTAMNTVLCKIHSVDLQAVGLEDYGKQGDYIPRQVRTWVKQYRASETSTIPAMERLIEWLPLHLPRQQRTTVVHGDFRLDNLVFHPEEPEVLAVLDWELSTLGDPLADVAYSCLAHYLPSSFPVLRGINDCDLTQLGIPAAEEYFRMYCLQMGLPPTENWNFYMAFSFFRVAAILQGVYKRSLTGQASSTYAEQTGKLTEFVSNLAWDFAVKEGFRVFKEMPFTNPLTRSYHTWARPQSQWCPTGSRSYSSVPEASPAHTSRGGLVISPESLSPPVRELYHRLKHFMEQRVYPAEPELQSHQASAARWSPSPLIEDLKEKAKAEGLWNLFLPLEADPEKKYGAGLTNVEYAHLCELMGTSLYAPEVCNCSAPDTGNMELLVRYGTEAQKARWLIPLLEGKARSCFAMTEPQVASSDATNIEASIREEDSFYVINGHKWWITGILDPRCQLCVFMGKTDPHAPRHRQQSVLLVPMDTPGIKIIRPLTVYGLEDAPGGHGEVRFEHVRVPKENMVLGPGRGFEIAQGRLGPGRIHHCMRLIGFSERALALMKARVKSRLAFGKPLVEQGTVLADIAQSRVEIEQARLLVLRAAHLMDLAGNKAAALDIAMIKMVAPSMASRVIDRAIQAFGAAGLSSDYPLAQFFTWARALRFADGPDEVHRATVAKLELKHRI
B2: IDH3A (protein, UniProt P50213 28-366, looked up)
Isocitrate dehydrogenase …: TGGVQTVTLIPGDGIGPEISAAVMKIFDAAKAPIQWEERNVTAIQGPGGKWMIPSEAKESMDKNKMGLKGPLKTPIAAGHPSMNLLLRKTFDLYANVRPCVSIEGYKTPYTDVNIVTIRENTEGEYSGIEHVIVDGVVQSIKLITEGASKRIAEFAFEYARNNHRSNVTAVHKANIMRMSDGLFLQKCREVAESCKDIKFNEMYLDTVCLNMVQDPSQFDVLVMPNLYGDILSDLCAGLIGGLGVTPSGNIGANGVAIFESVHGTAPDIAGKDMANPTALLLSAVMMLRHMGLFDHAARIEAACFATIKDGKSLTKDLGGNAKCSDFTEEICRRVKDLD
B3: HARS2 (protein, UniProt P49590 34-506, looked up)
Histidine--tRNA ligase, …: QSQVAEAVLTSQLKAHQEKPNFIIKTPKGTRDLSPQHMVVREKILDLVISCFKRHGAKGMDTPAFELKETLTEKYGEDSGLMYDLKDQGGELLSLRYDLTVPFARYLAMNKVKKMKRYHVGKVWRRESPTIVQGRYREFCQCDFDIAGQFDPMIPDAECLKIMCEILSGLQLGDFLIKVNDRRIVDGMFAVCGVPESKFRAICSSIDKLDKMAWKDVRHEMVVKKGLAPEVADRIGDYVQCHGGVSLVEQMFQDPRLSQNKQALEGLGDLKLLFEYLTLFGIADKISFDLSLARGLDYYTGVIYEAVLLQTPTQAGEEPLNVGSVAAGGRYDGLVGMFDPKGHKVPCVGLSIGVERIFYIVEQRMKTKGEKVRTTETQVFVATPQKNFLQERLKLIAELWDSGIKAEMLYKNNPKLLTQLHYCESTGIPLVVIIGEQELKEGVIKIRSVASREEVAIKRENFVAEIQKRLSES
B4: FAF2 (protein, UniProt Q96CS3 2-445, looked up)
FAS-associated factor 2: AAPEERDLTQEQTEKLLQFQDLTGIESMDQCRHTLEQHNWNIEAAVQDRLNEQEGVPSVFNPPPSRPLQVNTADHRIYSYVVSRPQPRGLLGWGYYLIMLPFRFTYYTILDIFRFALRFIRPDPRSRVTDPVGDIVSFMHSFEEKYGRAHPVFYQGTYSQALNDAKRELRFLLVYLHGDDHQDSDEFCRNTLCAPEVISLINTRMLFWACSTNKPEGYRVSQALRENTYPFLAMIMLKDRRMTVVGRLEGLIQPDDLINQLTFIMDANQTYLVSERLEREERNQTQVLRQQQDEAYLASLRADQEKERKKREERERKRRKEEEVQQQKLAEERRRQNLQEEKERKLECLPPEPSPDDPESVKIIFKLPNDSRVERRFHFSQSLTVIHDFLFSLKESPEKFQIEANFPRRVLPCIPSEEWPNPPTLQEAGLSHTEVLFVQDLTDE
B5: CPT1A (protein, UniProt P50416 2-773, looked up)
Carnitine …: AEAHQAVAFQFTVTPDGIDLRLSHEALRQIYLSGLHSWKKKFIRFKNGIITGVYPASPSSWLIVVVGVMTTMYAKIDPSLGIIAKINRTLETANCMSSQTKNVVSGVLFGTGLWVALIVTMRYSLKVLLSYHGWMFTEHGKMSRATKIWMGMVKIFSGRKPMLYSFQTSLPRLPVPAVKDTVNRYLQSVRPLMKEEDFKRMTALAQDFAVGLGPRLQWYLKLKSWWATNYVSDWWEEYIYLRGRGPLMVNSNYYAMDLLYILPTHIQAARAGNAIHAILLYRRKLDREEIKPIRLLGSTIPLCSAQWERMFNTSRIPGEETDTIQHMRDSKHIVVYHRGRYFKVWLYHDGRLLKPREMEQQMQRILDNTSEPQPGEARLAALTAGDRVPWARCRQAYFGRGKNKQSLDAVEKAAFFVTLDETEEGYRSEDPDTSMDSYAKSLLHGRCYDRWFDKSFTFVVFKNGKMGLNAEHSWADAPIVAHLWEYVMSIDSLQLGYAEDGHCKGDINPNIPYPTRLQWDIPGECQEVIETSLNTANLLANDVDFHSFPFVAFGKGIIKKCRTSPDAFVQLALQLAHYKDMGKFCLTYEASMTRLFREGRTETVRSCTTESCDFVRAMVDPAQTVEQRLKLFKLASEKHQHMYRLAMTGSGIDRHLFCLYVVSKYLAVESPFLKEVLSEPWRLSTSQTPQQQVELFDLENNPEYVSSGGGFGPVADDGYGVSYILVGENLINFHISSKFSCPETDSHRFGRHLKEAMTDIITLFGLSSNSKK
B6: TMEM165 (protein, UniProt Q9HC07 34-324, looked up)
Putative divalent …: GPDEDLSHRNKEPPAPAQQLQPQPVAVQGPEPARVEKIFTPAAPVHTNKEDPATQTNLGFIHAFVAAISVIIVSELGDKTFFIAAIMAMRYNRLTVLAGAMLALGLMTCLSVLFGYATTVIPRVYTYYVSTVLFAIFGIRMLREGLKMSPDEGQEELEEVQAELKKKDEEFQRTKLLNGPGDVETGTSITVPQKKWLHFISPIFVQALTLTFLAEWGDRSQLTTIVLAAREDPYGVAVGGTVGHCLCTGLAVIGGRMIAQKISVRTVTIIGGIVFLAFAFSALFISPDSGF
B7: BSG (protein, UniProt P35613 22-385, looked up)
Basigin: AAGFVQAPLSQQRWVGGSVELHCEAVGSPVPEIQWWFEGQGPNDTCSQLWDGARLDRVHIHATYHQHAASTISIDTLVEEDTGTYECRASNDPDRNHLTRAPRVKWVRAQAVVLVLEPGTVFTTVEDLGSKILLTCSLNDSATEVTGHRWLKGGVVLKEDALPGQKTEFKVDSDDQWGEYSCVFLPEPMGTANIQLHGPPRVKAVKSSEHINEGETAMLVCKSESVPPVTDWAWYKITDSEDKALMNGSESRFFVSSSQGRSELHIENLNMEADPGQYRCNGTSSKGSDQAIITLRVRSHLAALWPFLGIVAEVLVLVTIIFIYEKRRKPEDVLDDDDAGSAPLKSSGQHQNDKGKNVRQRNSS
B8: IARS2 (protein, UniProt Q9NSE4 49-1012, looked up)
Isoleucine--tRNA ligase, …: SNHQPNSNSGRYRDTVLLPQTSFPMKLLGRQQPDTELEIQQKCGFSELYSWQRERKVKTEFCLHDGPPYANGDPHVGHALNKILKDIANRFHMMNGSKIHFVPGWDCHGLPIEIKVLSELGREAQNLSAMEIRKKARSFAKAAIEKQKSAFIRWGIMADWNNCYYTFDGKYEAKQLRTFYQMYDKGLVYRSYKPVFWSPSSRTALAEAELEYNPEHVSRSIYVKFPLLKPSPKLASLIDGSSPVSILVWTTQPWTIPANEAVCYMPESKYAVVKCSKSGDLYVLAADKVASVASTLETTFETISTLSGVDLENGTCSHPLIPDKASPLLPANHVTMAKGTGLVHTAPAHGMEDYGVASQHNLPMDCLVDEDGVFTDVAGPELQNKAVLEEGTDVVIKMLQTAKNLLKEEKLVHSYPYDWRTKKPVVIRASKQWFINITDIKTAAKELLKKVKFIPGSALNGMVEMMDRRPYWCISRQRVWGVPIPVFHHKTKDEYLINSQTTEHIVKLVEQHGSDIWWTLPPEQLLPKEVLSEVGGPDALEYVPGQDILDIWFDSGTSWSYVLPGPDQRADLYLEGKDQLGGWFQSSLLTSVAARKRAPYKTVIVHGFTLGEKGEKMSKSLGNVIHPDVVVNGGQDQSKEPPYGADVLRWWVADSNVFTEVAIGPSVLNAARDDISKLRNTLRFLLGNVADFNPETDSIPVNDMYVIDQYMLHLLQDLANKITELYKQYDFGKVVRLLRTFYTRELSNFYFSIIKDRLYCEKENDPKRRSCQTALVEILDVIVRSFAPILPHLAEEVFQHIPYIKEPKSVFRTGWISTSSIWKKPGLEEAVESACAMRDSFLGSIPGKNAAEYKVITVIEPGLLFEIIEMLQSEETSSTSQLNELMMASESTLLAQEPREMTADVIELKGKFLINLEGGDIREESSYKVIVMPTTKEKCPRCWKYTAESSDTLCPRCAEVVSGK

The molecules below were run on BAF complex subunits and histone proteins (assay: Mass spectrometry proteomics of purified HA-SS18 WT and HA-SS18-SSX1 complexes (Tables 5A-5E)). Details: HA-SS18SSX1 purification, NE (soluble nuclear extract) fraction, HEK-293T; peptides per identified protein.
Set-up: species or system human

Molecule	Total (total peptides)	Unique (unique peptides)
B1	6	6
B2	6	5
B3	6	5
B4	6	5
B5	6	4
B6	5	5
B7	5	5
B8	5	5

Same assay, conditions: HA-SS18WT_NE_peptides: HA-SS18 WT complexes purified from nuclear extract (NE), HEK-293T; label = protein identified (Gene Symbol)

Molecule	Total (peptides)	Unique (peptides)
B1	5	5
B2	7	6
B3	4	4
B4	5	4
B5	6	6
B6	4	4
B8	4	4

Same assay, conditions: HA-SS18WT_NE_peptides: proteins co-purified with HA-SS18 WT from nuclear extract (NE), HEK-293T

Molecule	Total (peptides)	Unique (peptides)
B7	2	2
